Data taken from publication PMC9963684, “Meroterpenoids with Immunosuppressive Activity from Edible Fungus Craterellus odoratus” (Molecules, 2023).

Test system: LPS-induced B-cell proliferation (spleen cells)
Experiment: LPS-induced B-cell proliferation ([3H]-thymidine uptake)
Type: cell-based, mouse
Details: SI = CC50/IC50
Procedure: Female BALB/c mice were sacrificed by cervical dislocation, and the spleens were removed aseptically. Mononuclear cell suspensions were prepared after cell debris and clumps were removed. Erythrocytes were depleted with ammonium chloride buffer solution. Lymphocytes were washed and resuspended in RPMI-1640 medium supplemented with 10% FBS, penicillin (100 U/mL), and streptomycin ([…]).
Fresh spleen cells were obtained from female BALB/c mice (18–20 g). The 5 × 10^5 spleen cells were cultured at the same conditions as those mentioned above. The cultures, in the presence or absence of various concentrations of compounds, were stimulated with 5 µg/mL of concanavalin A (ConA) or 10 µg/mL of lipopolysaccharide (LPS) to induce T-cells’ or B-cells’ proliferative responses, respectively. Proliferation was assessed in terms of uptake of [^3H]-thymidine during 8 h of pulsing with 25 µL/well of [^3H]-thymidine, and then cells were harvested onto glass fiber filters. The incorporated radioactivity was counted using a Beta scintillation counter (MicroBeta Trilux; PerkinElmer Life Sciences, Waltham, MA, USA). Cells treated without any stimuli were used as a negative control. The immunosuppressive activity of each compound was expressed as the concentration of compound that inhibited ConA-induced T-cell proliferation or LPS-induced B-cell proliferation to 50% (IC50) of the control value. […]

SMILES | LPS-Induced B-Cell Proliferation SI
CC1=CC[C@H]2C(C)(C)CCC[C@]2(C)[C@H]1C[C@@]12O[C@@H]1[C@H](O)C(CO)=C[C@H]2O [Compound 3, craterellin A] | >2.00
CC1=CCC2C(C)(C)CCCC2(C)C1CC12OC1C(=O)C(Cc1c(O)cc(CC(C)O)oc1=O)=CC2O (centres unmarked) [Compound 1, craterodoratin T] | >7.25
